Laboratory results taken from publication doi:10.1101/2023.05.30.542914 (bioRxiv, 2023).
These are yes or no findings as the source states them, for the method shown. Binding seen in cells or lysates may run through a third protein. A yes stands for co-enrichment or nearness to the bait. Other partners may have been found. A no says only that the protein was not detected with the bait. Sequences can lack the tags named with a protein.

T1: myc-tagged Wnt7a-BirA (UniProt O00755)
T1 sequence: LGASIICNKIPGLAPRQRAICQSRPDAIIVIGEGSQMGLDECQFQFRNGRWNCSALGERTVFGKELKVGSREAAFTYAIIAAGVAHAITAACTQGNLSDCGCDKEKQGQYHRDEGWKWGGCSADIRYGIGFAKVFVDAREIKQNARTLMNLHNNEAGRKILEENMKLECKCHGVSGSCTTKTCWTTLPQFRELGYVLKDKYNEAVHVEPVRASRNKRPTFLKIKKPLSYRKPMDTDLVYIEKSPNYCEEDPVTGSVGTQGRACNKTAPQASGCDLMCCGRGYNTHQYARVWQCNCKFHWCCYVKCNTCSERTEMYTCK

T2: myc-tagged EBP-BirA
T2 sequence: PVRASRNKRPTFLKIKKP

B1: COPB2 (mouse) (protein, UniProt O55029 1-905)
chain: MPLRLDIKRKLTARSDRVKSVDLHPTEPWMLASLYNGSVCVWNHETQTLVKTFEVCDLPVRAAKFVARKNWVVTGADDMQIRVFNYNTLERVHMFEAHSDYIRCIAVHPTQPFILTSSDDMLIKLWDWDKKWSCSQVFEGHTHYVMQIVINPKDNNQFASASLDRTIKVWQLGSSSPNFTLEGHEKGVNCIDYYSGGDKPYLISGADDRLVKIWDYQNKTCVQTLEGHAQNVSCASFHPELPIIITGSEDGTVRIWHSSTYRLESTLNYGMERVWCVASLRGSNNVALGYDEGSIIVKLGREEPAMSMDANGKIIWAKHSEVQQANLKAMGDTEIKDGERLPLAVKDMGSCEIYPQTIQHNPNGRFVVVCGDGEYIIYTAMALRNKSFGSAQEFAWAHDSSEYAIRESNSIVKIFKNFKEKKSFKPDFGAESIYGGFLLGVRSVNGLAFYDWENTELIRRIEIQPKHIFWSDSGELVCIATEESFFILKYLSEKVLAAQETHEGVTEDGIEDAFEVLGEIQEIVKTGLWVGDCFIYTSSVNRLNYYVGGEIVTIAHLDRTMYLLGYIPKDNRLYLGDKELNIVSYSLLVSVLEYQTAVMRRDFSMADKVLPTIPKEQRTRVAHFLEKQGFKQQALTVSTDPEHRFELALQLGELKIAYQLAVEAESEQKWKQLAELAISKCQFSLAQECLHHAQDYGGLLLLATASGNASMVNKLAEGAERDGKNNVAFMSYFLQGKLDACLELLIRTGRLPEAAFLARTYLPSQVSRVVKLWRENLSKVNQKAAESLADPTEYENLFPGLKEAFVVEEWVKETHADLWPAKQYPLVTPNEERNVMEEAKGFQPSRPTAQQEPDGKPASSPVIMASQTTHKEEKSLLELEVDLDNLELEDIDTTDINLDEDILDD
B2: COPA (mouse) (protein, UniProt Q8CIE6)
chain: MLTKFETKSARVKGLSFHPKRPWILTSLHNGVIQLWDYRMCTLIDKFDEHDGPVRGIDFHKQQPLFVSGGDDYKIKVWNYKLRRCLFTLLGHLDYIRTTFFHHEYPWILSASDDQTIRVWNWQSRTCVCVLTGHNHYVMCAQFHPSEDLVVSASLDQTVRVWDISGLRKKNLSPGAVESDVRGITGVDLFGTTDAVVKHVLEGHDRGVNWAAFHPTMPLIVSGADDRQVKIWRMNESKAWEVDTCRGHYNNVSCAVFHPRQELILSNSEDKSIRVWDMSKRTGVQTFRRDHDRFWVLAAHPNLNLFAAGHDGGMIVFKLERERPAYAVHGNMLHYVKDRFLRQLDFNSSKDVAVMQLRSGSKFPVFNMSYNPAENAVLLCTRASNLENSTYDLYTIPKDADSQNPDAPEGKRSSGLTAVWVARNRFAVLDRMHSLLIKNLKNEITKKIQVPNCDEIFYAGTGNLLLRDADSITLFDVQQKRTLASVKISKVKYVIWSADMSHVALLAKHAIVICNRKLDALCNIHENIRVKSGAWDESGVFIYTTSNHIKYAVTTGDHGIIRTLDLPIYVTRVKGNNVYCLDRECRPRVLTIDPTEFKFKLALINRKYDEVLHMVRNAKLVGQSIIAYLQKKGYPEVALHFVKDEKTRFSLALECGNIEIALEAAKALDDKNCWEKLGEVALLQGNHQIVEMCYQRTKNFDKLSFLYLITGNLEKLRKMMKIAEIRKDMSGHYQNALYLGDVSERVRILKNCGQKSLAYLSAATHGLDEEAESLKETFDPEKETIPDIDPNAKLLQPPAPIMPLDTNWPLLTVSKGFFEGSIASKGKGGALAADIDIDTVGTEGWGEDAELQLDEDGFVEAPEGLGEDVLGKGQEEGGGWDVEEDLELPPELDVPSGVSGSAEDGFFVPPTKGTSPTQIWCNNSQLPVDHILAGSFETAMRLLHDQVGVIQFGPYKQLFLQTYARGRTTYQALPCLPSMYSYPNRNWKDAGLKNGVPAVGLKLNDLIQRLQLCYQLTTVGKFEEAVEKFRSILLSVPLLVVDNKQEIAEAQQLITICREYIVGLCMEIERKKLPKETLDQQKRICEMAAYFTHSNLQPVHMILVLRTALNLFFKLKNFKTAATFARRLLELGPKPEVAQQTRKILSACEKNPTDACQLNYDMHNPFDICAASYRPIYRGKPVEKCPLSGACYSPEFKGQICRVTTVTEIGKDVIGLRISPLQFR
B3: Reck (receptor, UniProt Q9Z0J1 23-942)
chain: EVTGGLAPGSAGAVCCNHSKDNQMCRDVCEQIFSSKSESRLKHLLQRAPDYCPETMVEIWSCMNSSLPGVFKKSDGWVGLGCCELAIGLECRQACKQASSKNDISKVCRKEYENALFSCISRNEMGSVCCSYAGHHTNCREFCQAIFRTDSSPGPSQIKAVENYCASISPQLIHCVNNYTQSYPMRNPTDSLYCCDRAEDHACQNACKRILMSKKTEMEIVDGLIEGCKTQPLPQDPLWQCFLESSQSVHPGVTVHPPPSTGLDGAKLHCCSKANTSTCRELCTKLYSMSWGNTQSWQEFDRICEYNPVEVSMLTCLADVREPCQLGCTNLTYCTNFNNRPTELFRSCTAQSDQGAMSDMKLWEKGSIKMPFISIPVLDIKTCQPEMWKAVACSLQIKPCHSKSRGSIICKSDCVEILKKCGDQNKFPEEHTAESICEFLSPADDLESCIPLDTYLRPSALGNIIEEVTHPCNPNPCPANELCEVNRKGCPSADPCLPYSCVQGCKLGEASDFIVRQGTLIQVPSSAGEVGCYKICSCGQSGLLENCMEMHCIDLQKSCIVGGKRKSHGTSFTIDCNVCSCFAGNLVCSTRLCLSEHSSDDDRRTFTGLPCNCADQFVPVCAQNGRTYPSACIARCVGLQDHQFEFGPCISKNPCNPNLCPKSQRCVPKPQVCLTTFDKFGCSQYECVPRQLTCDQARDPVCDTDHMEHSNLCTLYQRGKSLSYRGPCQPFCRAKEPVCGHNGETYSSVCAAYSDRVAVDYYGPCQAVGVLSEYSAVAECAAVKCPSLSAIGCKPIIPPGACCPLCAGMLRVLFDKEKLDTIAKVTSKKPITVVEILQKVRMHVSVPQCDVFGYLSIESEIVILIIPVDHYPKALQIEACNKEAEKIESLINSDSPTLASHVPLSALIISQVQVSSSLPS
B4: WLS (protein, UniProt Q6DID7 1-541)
chain: MAGAIIENMSTKKLCIVGGILLVFQIVAFLVGGLIAPAPTTAVPYTAIKCVDVRKNHHKTRWLAPWGPNKCDKIRDIEEAIPREIEANDIVFSVHIPLPSMEMSPWFQFMLFILQLDIAFKLNNQIRENAEISMDVSLGYRDDMFSEWTEMAHERVPRKLKCTFTSPKTPEHEGRYYNCDVLPFMEIGSVAHKYYLLNIRLPVNEKKKINVGIGEIKDIRLVGIHQNGGFTKVWFAMKTFLTPSIFIIMVWYWRRITMMSRPPVLLEKVIFALGISMTFINIPVEWFSIGFDWTWMLLFGDIRQGIFYAMLLSFWIIFCGEHMMDQHERNHIAGYWKQVGPIAVGSFCLFIFDMCERGVQLTNPFYSIWTTDVGTELAMAFIIVAGICLCLYFLFLCFMVFQVFRNISGKQSSLPAMSKVRRLHYEGLIFRFKFLMLITLACAAMTVIFFIVSQVSEGHWKWGGVTVQVSSAFFTGIYGMWNLYVFALMFLYAPSHKNYGEDQSNGDLGVHSGEELQLTTTITHVDGPTEIYKLTRKEAQE

These binders were tested against T1, myc-tagged Wnt7a-BirA (assay: proximity labelling).

Binder | binding
B1 | binds
B2 | binds
B3 | no binding
B4 | no binding

Each binder was assayed against T2, myc-tagged EBP-BirA (assay: proximity labelling).

Binder | binding
B1 | binds
B2 | binds
B3 | no binding
